US11124554B2, “Modified ligand-gated ion channels and methods of use” (Howard Hughes Medical Institute, priority 2016, dated 2021)
Some entries share one result that the patent states for a list of compounds.

By UniProt entry, the sequences of proteins in these tests, tags left out. Chains listed by the source or under a name are the forms on record and can include a tag or linker.
UniProt P36544, with tags, fused parts or gaps G175K: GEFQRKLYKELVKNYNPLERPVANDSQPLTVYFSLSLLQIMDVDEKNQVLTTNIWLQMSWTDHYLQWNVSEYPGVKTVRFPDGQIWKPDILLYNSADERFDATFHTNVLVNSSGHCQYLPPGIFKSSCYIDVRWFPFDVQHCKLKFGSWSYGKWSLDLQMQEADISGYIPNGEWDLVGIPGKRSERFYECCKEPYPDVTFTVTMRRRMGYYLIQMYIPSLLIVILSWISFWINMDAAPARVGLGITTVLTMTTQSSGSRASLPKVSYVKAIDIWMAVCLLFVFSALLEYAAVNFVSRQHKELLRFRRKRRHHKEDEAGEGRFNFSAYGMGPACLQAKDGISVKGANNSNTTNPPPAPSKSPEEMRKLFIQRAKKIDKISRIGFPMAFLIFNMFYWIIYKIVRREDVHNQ

Target: T1, α7^G175K-GlyR (Homo sapiens, UniProt P36544, G175K)
T1 construct: expressed in transfected cells
Experiment: Agonist potency at chimeric channel
Type: cell-based

In the case of `CN1C2CCCC1CC(NC(=O)c1nn(C)c3ccccc13)C2` (stereo not shown) [Granisetron], the “potency enhancement over α7-GlyR” value is reported as “greater than 10 fold”.
